# Structures can show the parent of a compound that is named as a salt. In all, about 1,000 compounds were measured (“cFRET/donor change relative to DMSO, normalised to beta-lapachone positive control (supercomplex I-IV assembly)”: median about 0.18, lowest 2% from about -1 on). This is one part of the list.
# Tested on: C2C12 (NDUFB8-AcGFP / COX8A-DsRed-Monomer FRET reporter)
# Experiment: cFRET/donor change relative to DMSO, normalised to beta-lapachone positive control (supercomplex I-IV assembly) (fraction of beta-lapachone effect); higher = more respiratory supercomplex assembly
# Conditions: 40 µM; 24 h
# Description: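 Cells were treated with 40 uM compound for 24 h and imaged on an IN Cell Analyzer 6000. Corrected FRET was divided by donor signal (cFRET/donor) and measured in two replicate experiments. The score is (mean cFRET/donor of compound - mean DMSO) / (mean beta-lapachone 40 uM - mean DMSO). Compounds flagged for prominent cell death, abnormal morphology or decreased cell number were excluded.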
row,SMILES,cFRET/donor change
1,C=CC1=C(C)c2cc3[nH]c(cc4nc(cc5[nH]c(cc1n2)c(C)c5CCC(=O)O)C(CCC(=O)O)=C4C)c(C)c3C=C [Protoporphyrin IX disodium],3.12
2,Nc1ccn([C@@H]2O[C@H](CO)[C@@H](O)C2(F)F)c(=O)n1 [Gemcitabine hydrochloride],0.261
3,COc1ccccc1N1CCN(CCN(C(=O)C2CCCCC2)c2ccccn2)CC1,0.216
4,Nc1ncnc2c1ncn2[C@@H]1O[C@H](CO)[C@@H](O)[C@H]1O [Adenosine],0.127
5,CN1C[C@H](O)[C@@H](O)[C@H](O)[C@H]1CO [N-Methyl-1-deoxynojirimycin],0.389
6,C=C1C[C@@]23CC[C@H]4[C@@](C)(CCC[C@@]4(C)C(=O)O)[C@@H]2CC[C@]1(O)C3 [Steviol],0.397
7,CN(C)CC/C=C1/c2ccccc2Sc2ccc(Cl)cc21 [Chlorprothixene hydrochloride],0.39
8,CC(=O)[C@H]1CC[C@H]2[C@@H]3CCC4=CC(=O)CC[C@]4(C)[C@H]3CC[C@]12C [Progesterone],0.445
9,C[C@]12CC[C@@H]3c4ccc(O)cc4CC[C@H]3[C@@H]1CC[C@@H]2O [beta-Estradiol],0.311
10,CC1=C(C(=O)O)N2C(=O)[C@@H](NC(=O)[C@H](N)C3=CCC=CC3)[C@H]2SC1 [Cephradine],0.505
11,CCc1c(C)[nH]c2c1C(=O)C(CN1CCOCC1)CC2 (stereo unspecified) [Molindone hydrochloride],0.417
12,CN1CCc2cc(Cl)c(O)cc2[C@@H](c2ccccc2)C1,0.549
13,Nc1ccc(N2C(=O)c3ccccc3C2=O)c(Cl)c1 [N-(4-Amino-2-chlorophenyl)phthalimide],-0.0444
14,CNS(=O)(=O)CCc1ccc2[nH]cc(C3CCN(C)CC3)c2c1 [Naratriptan hydrochloride],0.347
15,CC1=C(/C=C/C(C)=C/C=C/C(C)=C/C=C/C=C(C)/C=C/C=C(C)/C=C/C2=C(C)C(=O)[C@@H](O)CC2(C)C)C(C)(C)C[C@H](O)C1=O [Astaxanthin],-0.0722
16,CC(=O)Oc1ccccc1C(=O)O [Acetylsalicylic acid],0.314
17,"O=C(O)[C@H]1NCCC[C@H]1C(=O)O (racemic) [(±)-cis-Piperidine-2,3-dicarboxylic acid]",-0.226
18,NC(=O)C1=CN(C2OC(COP(=O)(O)OP(=O)(O)OC[C@H]3O[C@@H](n4cnc5c(N)ncnc54)C(OP(=O)(O)O)[C@H]3O)C(O)C2O)C=CC1 (stereo partly specified) [NADPH tetrasodium],-0.198
19,"CC(O)C(O)[C@H]1CNc2nc(N)[nH]c(=O)c2N1 (stereo partly drawn) [(6R)-5,6,7,8-Tetrahydro-L-biopterin hydrochloride]",0.491
20,CC1=C(/C=C/C(C)=C/C=C/C(C)=C/C(=O)O)C(C)(C)CCC1 [Retinoic acid],0.0818
21,OCC1OC(n2cnc3c(NC4CCCCC4)ncnc32)C(O)C1O (stereo unspecified) [N6-Cyclohexyladenosine],0.295
22,N[C@@H](Cc1c[nH]c2ccc(O)cc12)C(=O)O [5-Hydroxy-L-tryptophan],0.0781
23,O=C(O)/C=C/c1ccc(O)c(O)c1 [Caffeic Acid],0.339

# By substructure: the compounds so far containing a carbonyl joined to an NH by a bond outside any ring.
row,SMILES,cFRET/donor change
10,CC1=C(C(=O)O)N2C(=O)[C@@H](NC(=O)[C@H](N)C3=CCC=CC3)[C@H]2SC1 [Cephradine],0.505
18,NC(=O)C1=CN(C2OC(COP(=O)(O)OP(=O)(O)OC[C@H]3O[C@@H](n4cnc5c(N)ncnc54)C(OP(=O)(O)O)[C@H]3O)C(O)C2O)C=CC1 (stereo partly specified) [NADPH tetrasodium],-0.198

# Following part.

row,SMILES,cFRET/donor change
1,COc1cc2nc(N(C)CCCNC(=O)C3CCCO3)nc(N)c2cc1OC (stereo unspecified) [Alfuzosin hydrochloride],0.0541
2,CC(=O)O[C@]1(C(C)=O)CC[C@H]2[C@@H]3C=C(Cl)C4=CC(=O)[C@@H]5C[C@@H]5[C@]4(C)[C@H]3CC[C@@]21C [Cyproterone acetate],0.0328
3,N[C@@H]1CONC1=O [D-Cycloserine],0.129
4,O=C(O)COCCN1CCN(C(c2ccccc2)c2ccc(Cl)cc2)CC1 (stereo unspecified) [Cetirizine dihydrochloride],0.511
5,Cc1ccc(S(=O)(=O)N[C@@H](Cc2ccccc2)C(=O)CCl)cc1 [N-p-Tosyl-L-phenylalanine chloromethyl ketone],0.262
6,CC(C)NCC(O)COc1ccc(CCOCC2CC2)cc1 (stereo unspecified) [Betaxolol hydrochloride],0.18
7,C[N+](C)(C)CC=O [Betaine aldehyde chloride],-0.0277
8,OC[C@H]1O[C@@H](n2cnc3c(NC4CCCC4)ncnc32)[C@H](O)[C@@H]1O [N6-Cyclopentyladenosine],0.479
9,CCCn1c(=O)[nH]c(=O)c2[nH]cnc21 [3-n-Propylxanthine],0.315
10,C1COC(NC(C2CC2)C2CC2)=N1 [Rilmenidine hemifumarate],0.52
11,"Cn1c(=O)[nH]c2ncn(C)c2c1=O [1,7-Dimethylxanthine]",0.461
12,Fc1ccc(CN(C2=NCCN2)c2c(Cl)cccc2Cl)cc1 [IMID-4F hydrochloride],0.313
13,Cc1nn(-c2ccccc2)c(C)c1C=NN1CCN(Cc2ccccc2)CC1,0.373
14,Oc1cc2c(c(Cl)c1O)CCNCC2c1ccccc1 (racemic) [(±)-6-Chloro-PB hydrobromide],2.85
15,C[C@H]1c2cccc(O)c2C(=O)C2=C(O)[C@]3(O)C(=O)C(C(N)=O)=C(O)[C@@H](N(C)C)[C@@H]3[C@@H](O)[C@@H]21 [Doxycycline hydrochloride],-0.16
16,C[C@](N)(Cc1ccc(O)c(O)c1)C(=O)O [L-alpha-Methyl DOPA],0.341
17,c1cnc(N2CCN(Cc3ccc4c(c3)OCO4)CC2)nc1 [Piribedil maleate],0.16
18,O=C(O)CNC(=O)C(CS)Cc1ccccc1 (racemic) [DL-Thiorphan],-0.109
19,OC[C@H]1NC[C@H](O)[C@@H](O)[C@@H]1O [1-Deoxynojirimycin hydrochloride],0.114
20,Cc1cc(Nc2ncc3cc(-c4c(Cl)cccc4Cl)c(=O)n(C)c3n2)ccc1F,-0.253
21,CN[C@H](CC(=O)O)C(=O)O [N-Methyl-D-aspartic acid],0.156
22,"Cn1c(=O)c2[nH]c(-c3ccccc3)nc2n(C)c1=O [1,3-Dimethyl-8-phenylxanthine]",-1.5
23,CN1CCC[C@@H]1Cc1c[nH]c2ccc(CCS(=O)(=O)c3ccccc3)cc12 [Eletriptan hydrobromide],0.314

# Reference: the supplement of paper PMC9877034
